Counter-ions that a name gives are not always drawn. ± gives the standard deviation of the averaged measurements. The list shows a part of the results. Repeats in this data set agree poorly, so a single value says little.
System: A549
Test: surface PD-L1 immunofluorescence intensity relative to IFN-gamma-only control (ratio); higher = more PD-L1 expression
Conditions: 10 µM; exposure time 24 h; IFN-gamma 100 ng/mL

| Compound | surface PD-L1 immunofluorescence intensity |
| --- | --- |
| CCC1(c2ccccc2)C(=O)NCNC1=O [Primidone] | 0.907 ± 0.037 |
| C[C@H]1[C@H](C)CC[C@]2(C(=O)O)CC[C@]3(C)C(=CC[C@@H]4[C@@]5(C)CC[C@H](O)C(C)(C)[C@@H]5CC[C@]43C)[C@H]12 [Ursolic acid (Malol)] | 1.05 |
| O=C(c1ccc(F)cc1)C1CCN(CCn2c(=O)[nH]c3ccccc3c2=O)CC1 [Ketanserin tartrate hydrate] | 0.901 |
| Cc1noc(NS(=O)(=O)c2cccc3c(N(C)C)cccc23)c1C | 1.02 |
| CCN(CC)C(=O)c1ccc(O)c(OC)c1 [Ethamivan] | 1.06 |
| Nc1nccc(Oc2ccc(NC(=O)c3c[nH]cc(-c4ccc(F)cc4)c3=O)cc2F)c1Cl | 1.04 |
| CN(C)CCOC(c1ccccc1)c1ccccc1.Cn1c(=O)c2[nH]c(Cl)nc2n(C)c1=O [Dimenhydrinate] | 0.909 |
| CN(CCCN1c2ccccc2CCc2ccccc21)CC(=O)c1ccc(Cl)cc1 [Lofepramine] | 0.995 |
| CCS(=O)(=O)N1CC(CC#N)(n2cc(-c3ncnc4[nH]ccc34)cn2)C1 | 0.717 |
| CC(=O)OCCN1C(=O)c2c(C)nc3ccc(S(=O)(=O)N4CCOCC4)cc3c2C1=O [Ivachtin] | 0.976 |
| O=C1NCC2(CCN(CCc3ccccc3)CC2)O1 [Fenspiride hydrochloride] | 0.951 |
| Clc1ccc2c(c1)CCc1cccnc1C2=C1CCNCC1 [Desloratadine] | 1.06 |
| O=C1NC(=O)c2cc(Nc3ccccc3)c(Nc3ccccc3)cc21 | 0.967 |
| O=C(O)CCc1ccc(NCc2cccc(Oc3ccccc3)c2)cc1 | 0.917 |
| CC(=O)O[C@@H]1C[C@H]2C(C)(C)C(=O)C=C[C@]2(C)[C@H]2CC[C@@]3(C)[C@H](c4ccoc4)OC(=O)[C@H]4O[C@]43[C@@]21C [Gedunin] | 1.12 |
| Cc1cc2nc3c(=O)[nH]c(=O)nc-3n(C[C@H](O)[C@H](O)[C@H](O)CO)c2cc1C [Riboflavin (Vitamin B2)] | 1.12 |
| CCN(CC)c1ccc(/C=N/NC(=O)c2ccc(O)cc2)cc1 | 1.03 |
| CO[C@H]1/C=C/O[C@@]2(C)Oc3c(C)c(O)c4c(O)c(c5c(nc6cc(C)ccn65)c4c3C2=O)NC(=O)/C(C)=C\C=C\[C@H](C)[C@H](O)[C@@H](C)[C@@H](O)[C@@H](C)[C@H](OC(C)=O)[C@@H]1C [Rifaximin (Xifaxan)] | 1.03 |
| CO[C@H]1/C=C/O[C@@]2(C)Oc3c(C)c(O)c4c(O)c(c5c(nc6cc(C)ccn65)c4c3C2=O)NC(=O)/C(C)=C\C=C\[C@H](C)[C@H](O)[C@@H](C)[C@@H](O)[C@@H](C)[C@H](OC(C)=O)[C@@H]1C [Rifaximin] | 0.952 |

As a working copy, some entries already given.

| Compound | surface PD-L1 immunofluorescence intensity |
| --- | --- |
| CCN(CC)c1ccc(/C=N/NC(=O)c2ccc(O)cc2)cc1 | 1.03 |
| CO[C@H]1/C=C/O[C@@]2(C)Oc3c(C)c(O)c4c(O)c(c5c(nc6cc(C)ccn65)c4c3C2=O)NC(=O)/C(C)=C\C=C\[C@H](C)[C@H](O)[C@@H](C)[C@@H](O)[C@@H](C)[C@H](OC(C)=O)[C@@H]1C [Rifaximin (Xifaxan)] | 1.03 |

Reference: the supplement of paper PMC8732350
